In the supplement of paper PMC12595434, “Development of retinoid nuclear receptor pathway antagonists through targeting aldehyde dehydrogenase 1A3” (iScience, 2025):
Some of the results follow. The data scatter; read single values as rough.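 Tm was set to 64 °C where no melting was found, and many curves are irregular.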

Sequences of proteins named here, by UniProt entry; tags and fusion partners are left off. A change or cut given only in a name is not applied to a line headed by its entry.
UniProt Q2PZI1: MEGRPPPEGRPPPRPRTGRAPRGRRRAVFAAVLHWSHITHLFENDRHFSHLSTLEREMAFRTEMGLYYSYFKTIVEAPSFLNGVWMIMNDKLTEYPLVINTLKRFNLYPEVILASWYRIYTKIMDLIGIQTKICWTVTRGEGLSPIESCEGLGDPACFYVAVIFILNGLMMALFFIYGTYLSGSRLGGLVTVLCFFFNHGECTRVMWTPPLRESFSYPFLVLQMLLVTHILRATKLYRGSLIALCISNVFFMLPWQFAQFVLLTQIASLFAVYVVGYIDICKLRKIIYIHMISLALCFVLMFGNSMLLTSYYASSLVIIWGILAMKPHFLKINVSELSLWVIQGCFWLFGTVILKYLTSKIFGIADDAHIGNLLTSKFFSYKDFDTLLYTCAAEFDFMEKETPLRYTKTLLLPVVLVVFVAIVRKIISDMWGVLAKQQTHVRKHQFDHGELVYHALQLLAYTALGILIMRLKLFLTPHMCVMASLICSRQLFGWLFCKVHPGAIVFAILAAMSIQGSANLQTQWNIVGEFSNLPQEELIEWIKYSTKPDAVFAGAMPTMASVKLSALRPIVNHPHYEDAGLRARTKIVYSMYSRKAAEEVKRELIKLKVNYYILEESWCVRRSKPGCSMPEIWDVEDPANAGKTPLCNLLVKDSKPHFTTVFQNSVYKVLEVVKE
UniProt Q15717, whole entry: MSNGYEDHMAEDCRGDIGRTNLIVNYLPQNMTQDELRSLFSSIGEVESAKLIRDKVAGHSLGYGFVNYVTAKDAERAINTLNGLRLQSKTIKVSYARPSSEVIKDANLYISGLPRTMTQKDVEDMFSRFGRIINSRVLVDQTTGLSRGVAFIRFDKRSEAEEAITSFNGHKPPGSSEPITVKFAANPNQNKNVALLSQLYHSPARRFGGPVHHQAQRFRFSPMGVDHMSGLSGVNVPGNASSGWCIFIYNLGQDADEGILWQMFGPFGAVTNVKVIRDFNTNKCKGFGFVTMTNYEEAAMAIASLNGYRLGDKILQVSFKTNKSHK
UniProt Q4G176: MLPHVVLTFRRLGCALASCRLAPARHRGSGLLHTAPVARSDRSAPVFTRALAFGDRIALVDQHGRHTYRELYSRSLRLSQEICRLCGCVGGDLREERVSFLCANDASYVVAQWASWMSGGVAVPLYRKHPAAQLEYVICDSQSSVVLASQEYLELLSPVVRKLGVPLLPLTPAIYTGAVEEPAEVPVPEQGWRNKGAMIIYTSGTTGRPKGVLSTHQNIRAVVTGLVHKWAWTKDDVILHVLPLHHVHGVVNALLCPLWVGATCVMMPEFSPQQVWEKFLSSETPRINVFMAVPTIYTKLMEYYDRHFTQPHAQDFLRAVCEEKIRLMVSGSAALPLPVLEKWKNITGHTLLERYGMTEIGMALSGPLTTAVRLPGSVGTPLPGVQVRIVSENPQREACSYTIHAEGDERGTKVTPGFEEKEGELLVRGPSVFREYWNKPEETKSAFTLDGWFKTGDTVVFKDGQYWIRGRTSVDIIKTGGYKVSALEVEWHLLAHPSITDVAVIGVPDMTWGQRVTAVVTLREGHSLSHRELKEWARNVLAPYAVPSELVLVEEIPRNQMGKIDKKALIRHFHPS
UniProt Q16629: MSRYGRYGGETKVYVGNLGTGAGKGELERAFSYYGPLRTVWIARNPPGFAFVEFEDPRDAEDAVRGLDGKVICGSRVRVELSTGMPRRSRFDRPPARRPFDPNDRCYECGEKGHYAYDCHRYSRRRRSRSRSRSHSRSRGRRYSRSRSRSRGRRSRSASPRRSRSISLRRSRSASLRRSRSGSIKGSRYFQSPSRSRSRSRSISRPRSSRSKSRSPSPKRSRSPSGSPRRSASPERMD
UniProt Q16512: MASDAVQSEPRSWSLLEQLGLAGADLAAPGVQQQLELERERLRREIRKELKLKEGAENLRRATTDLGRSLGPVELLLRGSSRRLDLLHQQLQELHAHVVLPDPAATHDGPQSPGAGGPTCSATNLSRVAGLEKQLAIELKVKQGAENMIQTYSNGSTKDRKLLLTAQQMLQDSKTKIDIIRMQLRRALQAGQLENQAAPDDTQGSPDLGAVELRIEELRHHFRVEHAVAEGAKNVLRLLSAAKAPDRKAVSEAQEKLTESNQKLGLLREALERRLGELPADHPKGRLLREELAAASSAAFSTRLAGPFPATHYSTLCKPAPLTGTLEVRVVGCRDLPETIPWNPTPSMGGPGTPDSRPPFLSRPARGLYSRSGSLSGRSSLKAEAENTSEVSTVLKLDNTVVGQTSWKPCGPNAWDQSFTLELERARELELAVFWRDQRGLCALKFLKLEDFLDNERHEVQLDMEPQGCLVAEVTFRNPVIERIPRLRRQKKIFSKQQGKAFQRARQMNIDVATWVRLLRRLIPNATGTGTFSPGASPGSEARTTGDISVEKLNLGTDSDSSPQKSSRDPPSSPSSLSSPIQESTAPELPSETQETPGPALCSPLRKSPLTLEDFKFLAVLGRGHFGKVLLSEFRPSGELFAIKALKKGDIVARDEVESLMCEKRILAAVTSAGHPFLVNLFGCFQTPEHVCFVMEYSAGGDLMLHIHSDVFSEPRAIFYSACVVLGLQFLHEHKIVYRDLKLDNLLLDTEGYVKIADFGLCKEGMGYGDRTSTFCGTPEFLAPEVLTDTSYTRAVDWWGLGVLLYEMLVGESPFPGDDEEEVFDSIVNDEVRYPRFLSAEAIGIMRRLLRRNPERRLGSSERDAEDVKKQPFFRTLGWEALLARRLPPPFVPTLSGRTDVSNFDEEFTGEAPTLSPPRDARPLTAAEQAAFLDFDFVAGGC
UniProt Q56P03: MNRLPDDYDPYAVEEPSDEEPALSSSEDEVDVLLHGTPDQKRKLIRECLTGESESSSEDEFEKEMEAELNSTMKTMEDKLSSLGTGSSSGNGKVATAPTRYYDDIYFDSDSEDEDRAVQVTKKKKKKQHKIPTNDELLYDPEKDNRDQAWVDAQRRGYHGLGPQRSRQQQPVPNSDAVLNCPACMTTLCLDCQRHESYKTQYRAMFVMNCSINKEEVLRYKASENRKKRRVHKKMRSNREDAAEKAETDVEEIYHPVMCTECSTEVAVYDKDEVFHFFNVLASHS
UniProt Q15631: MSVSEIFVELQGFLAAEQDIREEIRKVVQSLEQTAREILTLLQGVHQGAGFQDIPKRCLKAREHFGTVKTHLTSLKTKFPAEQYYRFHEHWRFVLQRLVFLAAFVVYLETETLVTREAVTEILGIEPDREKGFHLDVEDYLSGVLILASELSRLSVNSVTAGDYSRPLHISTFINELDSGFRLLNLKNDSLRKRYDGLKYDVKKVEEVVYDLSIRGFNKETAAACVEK
UniProt Q15652: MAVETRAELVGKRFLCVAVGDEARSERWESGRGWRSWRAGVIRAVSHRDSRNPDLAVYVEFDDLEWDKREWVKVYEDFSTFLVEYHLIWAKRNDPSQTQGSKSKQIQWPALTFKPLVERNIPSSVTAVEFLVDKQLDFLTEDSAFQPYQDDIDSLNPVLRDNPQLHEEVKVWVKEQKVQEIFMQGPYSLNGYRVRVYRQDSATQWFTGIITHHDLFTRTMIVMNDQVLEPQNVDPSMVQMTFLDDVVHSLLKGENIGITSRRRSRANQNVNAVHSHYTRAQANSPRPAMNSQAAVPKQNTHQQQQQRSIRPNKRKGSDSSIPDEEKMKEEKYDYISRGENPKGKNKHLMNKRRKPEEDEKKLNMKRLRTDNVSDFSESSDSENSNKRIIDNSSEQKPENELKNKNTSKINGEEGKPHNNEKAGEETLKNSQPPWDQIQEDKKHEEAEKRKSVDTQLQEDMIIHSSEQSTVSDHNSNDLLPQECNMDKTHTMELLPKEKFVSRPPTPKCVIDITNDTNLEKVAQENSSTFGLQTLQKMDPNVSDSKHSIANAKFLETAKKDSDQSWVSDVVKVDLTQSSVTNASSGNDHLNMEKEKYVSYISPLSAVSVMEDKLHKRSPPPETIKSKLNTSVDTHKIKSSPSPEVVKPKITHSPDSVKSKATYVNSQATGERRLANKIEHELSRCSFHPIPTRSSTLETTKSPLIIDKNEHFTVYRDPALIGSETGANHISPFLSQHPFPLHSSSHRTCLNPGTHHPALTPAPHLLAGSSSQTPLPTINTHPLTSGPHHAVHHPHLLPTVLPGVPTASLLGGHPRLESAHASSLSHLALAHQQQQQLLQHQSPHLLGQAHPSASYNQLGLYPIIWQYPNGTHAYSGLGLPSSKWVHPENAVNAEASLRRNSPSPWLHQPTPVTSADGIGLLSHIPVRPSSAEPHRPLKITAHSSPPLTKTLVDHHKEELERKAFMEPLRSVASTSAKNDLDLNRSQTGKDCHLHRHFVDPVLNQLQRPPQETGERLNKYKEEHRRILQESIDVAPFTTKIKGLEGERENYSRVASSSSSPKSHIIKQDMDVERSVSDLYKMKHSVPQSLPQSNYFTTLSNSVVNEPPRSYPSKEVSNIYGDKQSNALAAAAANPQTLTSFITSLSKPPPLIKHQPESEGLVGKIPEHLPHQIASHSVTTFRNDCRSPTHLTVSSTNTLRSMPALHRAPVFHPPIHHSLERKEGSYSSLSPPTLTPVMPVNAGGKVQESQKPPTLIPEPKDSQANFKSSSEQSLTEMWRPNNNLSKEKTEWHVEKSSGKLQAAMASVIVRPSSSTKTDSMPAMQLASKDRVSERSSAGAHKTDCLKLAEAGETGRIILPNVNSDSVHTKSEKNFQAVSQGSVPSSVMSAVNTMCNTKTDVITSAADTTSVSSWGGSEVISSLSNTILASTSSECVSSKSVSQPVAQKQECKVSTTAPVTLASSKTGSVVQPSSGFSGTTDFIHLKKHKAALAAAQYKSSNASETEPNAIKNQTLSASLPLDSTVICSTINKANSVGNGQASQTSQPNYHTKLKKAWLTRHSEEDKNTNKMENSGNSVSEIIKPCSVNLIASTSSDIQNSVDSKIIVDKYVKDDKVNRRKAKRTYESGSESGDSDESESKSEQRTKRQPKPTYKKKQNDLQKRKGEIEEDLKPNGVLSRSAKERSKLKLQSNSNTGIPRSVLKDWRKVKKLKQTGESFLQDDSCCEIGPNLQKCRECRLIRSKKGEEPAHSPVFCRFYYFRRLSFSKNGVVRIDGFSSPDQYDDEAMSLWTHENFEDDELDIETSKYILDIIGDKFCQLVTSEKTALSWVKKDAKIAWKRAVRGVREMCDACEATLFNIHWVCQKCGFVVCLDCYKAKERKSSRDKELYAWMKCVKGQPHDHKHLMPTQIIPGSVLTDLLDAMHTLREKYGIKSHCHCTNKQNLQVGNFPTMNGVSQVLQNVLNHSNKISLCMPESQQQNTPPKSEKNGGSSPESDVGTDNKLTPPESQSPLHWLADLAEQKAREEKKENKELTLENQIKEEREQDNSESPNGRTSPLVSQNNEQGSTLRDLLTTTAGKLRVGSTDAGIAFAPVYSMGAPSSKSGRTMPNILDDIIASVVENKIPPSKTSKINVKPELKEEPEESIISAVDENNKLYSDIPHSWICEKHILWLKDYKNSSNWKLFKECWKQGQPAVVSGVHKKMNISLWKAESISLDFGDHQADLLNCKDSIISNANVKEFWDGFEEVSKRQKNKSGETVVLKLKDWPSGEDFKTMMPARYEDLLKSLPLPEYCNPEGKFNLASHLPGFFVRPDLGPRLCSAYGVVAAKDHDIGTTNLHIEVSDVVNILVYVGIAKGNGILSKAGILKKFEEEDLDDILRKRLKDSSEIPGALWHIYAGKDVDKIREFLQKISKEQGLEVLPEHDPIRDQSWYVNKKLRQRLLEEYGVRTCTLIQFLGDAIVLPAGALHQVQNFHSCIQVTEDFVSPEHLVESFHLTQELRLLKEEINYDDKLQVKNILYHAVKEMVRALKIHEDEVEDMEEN
UniProt Q15390: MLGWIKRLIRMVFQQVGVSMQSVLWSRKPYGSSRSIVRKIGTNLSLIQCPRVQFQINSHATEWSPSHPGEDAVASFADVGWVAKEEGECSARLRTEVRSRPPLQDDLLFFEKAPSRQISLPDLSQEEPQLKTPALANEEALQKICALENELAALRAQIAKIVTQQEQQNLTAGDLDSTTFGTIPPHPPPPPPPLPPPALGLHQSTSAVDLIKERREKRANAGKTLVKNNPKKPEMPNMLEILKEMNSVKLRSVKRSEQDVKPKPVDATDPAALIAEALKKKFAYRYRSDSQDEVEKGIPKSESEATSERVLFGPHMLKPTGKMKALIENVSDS
UniProt Q15435: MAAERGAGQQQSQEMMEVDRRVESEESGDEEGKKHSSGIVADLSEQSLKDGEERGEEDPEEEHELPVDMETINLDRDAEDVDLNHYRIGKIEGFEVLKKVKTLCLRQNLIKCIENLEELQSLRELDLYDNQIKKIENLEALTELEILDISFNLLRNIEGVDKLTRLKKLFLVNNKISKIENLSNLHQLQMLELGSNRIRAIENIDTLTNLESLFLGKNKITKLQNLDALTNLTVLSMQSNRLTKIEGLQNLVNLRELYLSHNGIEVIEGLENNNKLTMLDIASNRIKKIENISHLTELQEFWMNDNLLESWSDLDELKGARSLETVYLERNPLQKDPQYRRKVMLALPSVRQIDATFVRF

Compound: CCc1cnccc1C(=O)Nc1cc2c(cc1F)NC(=O)CC2
Test: melting temperature shift (DMSO Tm minus MBE1-treated Tm) in cellular thermal proteome profiling; higher = less thermal stabilization by MBE1 (negative = stabilized by MBE1)
Details: A375

| Target | melting temperature shift (MBE1 concentration: 100 nM) [°C] | melting temperature shift (MBE1 concentration: 1 uM) [°C] |
| --- | --- | --- |
| SF3B4 (UniProt Q15427) | 0.00611 | 0.446 |
| EDRF1 (UniProt Q3B7T1) | -0.414 | -0.442 |
| UniProt Q2PPJ7 | -0.696 | -0.55 |
| HAGH (UniProt Q16775) | -1.74 | 0.159 |
| TIMM50 (UniProt Q3ZCQ8) | -0.733 | 0.263 |
| CYP51A1 (UniProt Q16850) | -1.15 | -0.687 |
| RASA2 (UniProt Q15283) | -1.12 | -0.518 |
| DPY19L1 (UniProt Q2PZI1) | -0.369 | -0.0335 |
| SURF1 (UniProt Q15526) | -0.402 | 0.501 |
| GNPTAB (UniProt Q3T906) | -2.96 | 0.0366 |
| ELAVL1 (UniProt Q15717) | -0.574 | -0.579 |
| ACSF3 (UniProt Q4G176) | -0.461 | -0.942 |
| SRSF7 (UniProt Q16629) | -1.43 | -1.03 |
| TBCC (UniProt Q15814) | -0.57 | 0.181 |
| UBE2S (UniProt Q16763) | 0.14 | 0.605 |
| WDR43 (UniProt Q15061) | -0.0827 | -0.555 |
| UPP1 (UniProt Q16831) | -0.462 | -1.36 |
| UniProt Q16512 | 0.568 | -0.104 |
| EAPP (UniProt Q56P03) | 0.134 | -0.0244 |
| UniProt Q4L235 | -0.751 | -0.814 |
| NADK2 (UniProt Q4G0N4) | -0.421 | 0.983 |

| Target | melting temperature shift (MBE1 concentration: 100 nM) [°C] | melting temperature shift (MBE1 concentration: 1 uM) [°C] |
| --- | --- | --- |
| RABEP1 (UniProt Q15276) | 0.342 | 0.165 |
| RPS6KA1 (UniProt Q15418) | 0.00611 | -0.354 |
| IAH1 (UniProt Q2TAA2) | -0.912 | 1.95 |
| TSN (UniProt Q15631) | -4.18 | 1.36 |
| MRPL51 (UniProt Q4U2R6) | -1.83 | -2.54 |
| TCEB2 (UniProt Q15370) | 0.188 | -0.114 |
| UniProt Q16877 | 1.11 | 0.116 |
| UniProt Q16773 | -2.13 | -2.14 |
| EML3 (UniProt Q32P44) | -0.0611 | -0.434 |
| UniProt Q53G59 | 1.47 | 0.751 |
| DPYSL2 (UniProt Q16555) | -1.82 | -0.434 |
| NSDHL (UniProt Q15738) | -0.376 | 0.759 |
| DBN1 (UniProt Q16643) | -0.464 | 0.189 |
| KIAA1033 (UniProt Q2M389) | -0.0188 | -0.169 |
| JMJD1C (UniProt Q15652) | 0.476 | 0.25 |
| MTFR1 (UniProt Q15390) | 0.771 | 0.513 |
| RAB35 (UniProt Q15286) | -0.892 | -1.97 |
| C11ORF73 (UniProt Q53FT3) | -0.355 | 0.0537 |
| PPP1R7 (UniProt Q15435) | -0.731 | 0.604 |
| ERCC6L (UniProt Q2NKX8) | -0.996 | -0.167 |

Copied from the list.
RABEP1 (UniProt Q15276) | melting temperature shift (MBE1 concentration: 100 nM) [°C]: 0.342
DPYSL2 (UniProt Q16555) | melting temperature shift (MBE1 concentration: 100 nM) [°C]: -1.82
